Assay results reported in PubChem BioAssay AID330 (DTP/NCI, 2004).
The list is a part of this screen's results and no random one: it is rich in T/C values a quarter to a half above the control, in often repeated tests (any T/C) and in doses without a T/C. Further doses and runs are listed elsewhere. T/C gives the treated animals as a percentage of the vehicle group. Some doses have a count of surviving animals in place of a T/C: the source holds a T/C of zero for them, seemingly a mark for toxic or unscored doses. Some survivor counts are full or nearly so, which does not show that the dose was tolerated: the source hardly ever lists a survival T/C far under the control, and the zero likely stands for such cases as well. Counts of survivors are from the toxicity check (mostly the fifth day) where no day follows; animals may have died later. Schedules are NCI's codes, read here as Q, the interval in days (D) or hours (H), X, the number of doses. Some entries were tested several times; the values are given in rising order. Where survival is the endpoint, this PubChem deposit counts one and a half times the control or more as active, and values a quarter to a half above the control carry no call in these data; other NCI protocols may use other cut-offs.

System: P388 leukemia ip, CD2F1 mice, survival T/C
Assay: NCI In Vivo Anticancer Drug Screen. Data for tumor model P388 Leukemia (intraperitoneal) in CD2F1 (CDF1) mice
Details: T/C endpoint: median survival time, higher T/C = longer survival
[1] = dose: 50.0 mg/kg/injection, schedule: Q01DX005 (ip), vehicle: saline with Tween-80
[2] = dose: 200.0 mg/kg/injection, schedule: Q01DX009 (ip), vehicle: Klucel (hydroxypropylcellulose) (HPC)
[3] = dose: 200.0 mg/kg/injection, schedule: Q01DX009 (ip), vehicle: saline with Tween-80
[4] = dose: 200.0 mg/kg/injection, schedule: Q01DX009 (ip), vehicle: water
[5] = dose: 200.0 mg/kg/injection, schedule: Q01DX005 (ip), vehicle: saline
[6] = dose: 100.0 mg/kg/injection, schedule: Q01DX009 (ip), vehicle: saline with Tween-80
[7] = dose: 10.0 mg/kg/injection, schedule: Q01DX009 (ip), vehicle: water
[8] = dose: 25.0 mg/kg/injection, schedule: Q01DX009 (ip), vehicle: Klucel (hydroxypropylcellulose) (HPC)
[9] = dose: 50.0 mg/kg/injection, schedule: Q01DX009 (ip), vehicle: Klucel (hydroxypropylcellulose) (HPC)
[10] = dose: 400.0 mg/kg/injection, schedule: Q01DX001 (ip), vehicle: Klucel (hydroxypropylcellulose) (HPC)
[11] = dose: 400.0 mg/kg/injection, schedule: Q01DX009 (ip), vehicle: saline with Tween-80
[12] = dose: 200.0 mg/kg/injection, schedule: Q01DX005 (ip), vehicle: Klucel (hydroxypropylcellulose) (HPC)

Structure (SMILES): CCOC(=O)Nc1cc2c(c(N)n1)N=C(c1ccc(C)c(C)c1)CN2
- T/C (dose: 6.25 mg/kg/injection, schedule: Q01DX005 (ip), vehicle: saline with Tween-80): 127 % of control
- T/C (dose: 12.5 mg/kg/injection, schedule: Q01DX005 (ip), vehicle: saline with Tween-80): 144 % of control
- survivor count (dose: 25.0 mg/kg/injection, schedule: Q01DX005 (ip), vehicle: saline with Tween-80): 5 of 5
- survivor count [1]: 2 of 5

Structure (SMILES): CN(C)P1(=O)OCC(C(C)(C)C)CN1C (configuration not stated)
- survivor count [2]: 0 of 6

Structure (SMILES): O=NN(CCCl)C(=O)OCc1ccccc1
- survivor count (dose: 50.0 mg/kg/injection, schedule: Q01DX001 (ip), vehicle: saline with Tween-80): 6 of 6

Structure (SMILES): NNC(=O)C(=O)Nc1ccc(F)cc1
- survivor count [3]: 3 of 6

Structure (SMILES): O=C(O)C(CBr)CBr
- survivor count [4]: 0 of 6
- survivor count (dose: 400.0 mg/kg/injection, schedule: Q01DX009 (ip), vehicle: water): 0 of 6

Structure (SMILES): C#CCC(N)C(=O)O (configuration not stated)
- survivor count [5]: 3 of 5

Structure (SMILES): C=CCN(CC=C)C(N)=Nc1ccccc1Cl
- survivor count (dose: 50.0 mg/kg/injection, schedule: Q01DX005 (ip), vehicle: saline): 0 of 6
- survivor count (dose: 100.0 mg/kg/injection, schedule: Q01DX005 (ip), vehicle: saline): 0 of 6
- survivor count [5]: 0 of 6

Structure (SMILES): CCCCCCC(=O)/C=C/c1cccc(OCc2ccc([N+](=O)[O-])cc2)c1
- survivor count [6]: 6 of 6

Structure (SMILES): Cn1c(-c2ccc(Cl)cc2)cc2cc(CN3C(=O)c4ccccc4C3=O)ccc21
- survivor count (dose: 200.0 mg/kg/injection, schedule: Q04DX003 (ip), vehicle: Klucel (hydroxypropylcellulose) (HPC)): 6 of 6

Structure (SMILES): COc1cc2c[n+]3c4c(cccc4c2cc1OC)CCC3
- survivor count (dose: 100.0 mg/kg/injection, schedule: Q01DX009 (ip), vehicle: water): 5 of 6
- survivor count [4]: 0 of 6

Structure (SMILES): CCOCC(=O)N[C@H]1CCc2cc(OC)c(OC)c(OC)c2-c2ccc(OC)c(=O)cc21
- survivor count (dose: 2.5 mg/kg/injection, schedule: Q01DX009 (ip), vehicle: water): 0 of 6 and 1 of 6
- survivor count (dose: 5.0 mg/kg/injection, schedule: Q01DX009 (ip), vehicle: water): 0 of 6
- survivor count [7]: 0 of 6

Structure (SMILES): COC(=O)/C=C/N(Cc1ccccc1)/N=N/N(/C=C/C(=O)OC)Cc1ccccc1
- survivor count [1]: 6 of 6
- survivor count (dose: 100.0 mg/kg/injection, schedule: Q01DX005 (ip), vehicle: saline with Tween-80): 6 of 6

Structure (SMILES): O=C(O)C1CSC(c2cccnc2)N1 (configuration not stated)
- survivor count (dose: 200.0 mg/kg/injection, schedule: Q01DX009 (ip), vehicle: saline): 6 of 6

Structure (SMILES): COC1/C=C/OC2(C)Oc3c(C)c(O)c4c(c3C2=O)C(=O)C([N+](=O)[O-])=C(NC(=O)C(C)=C/C=C\C(C)C(O)C(C)C(O)C(C)C(OC(C)=O)C1C)C4=O (configuration not stated)
- survivor count [8]: 6 of 6
- survivor count [9]: 6 of 6

Structure (SMILES): COc1ccc(/C=C/C(C)=O)c(OC)c1
- survivor count [10]: 0 of 6

Structure (SMILES): COc1ccc(NC(=O)c2cc3ccc4c5ccccc5[nH]c4c3cc2O)cc1
- survivor count (dose: 200.0 mg/kg/injection, schedule: Q01DX005 (ip), vehicle: saline with Tween-80): 6 of 6

Structure (SMILES): CC1CCCC(C2CC3CCCCC3C(N)[N-]2)[N-]1.O=[N+]([O-])O.O=[N+]([O-])O.[Cu+2] (configuration not stated)
- survivor count (dose: 25.0 mg/kg/injection, schedule: Q04DX002 (ip), vehicle: suspension in saline): 2 of 6
- survivor count (dose: 100.0 mg/kg/injection, schedule: Q04DX002 (ip), vehicle: suspension in saline): 0 of 6
- survivor count (dose: 200.0 mg/kg/injection, schedule: Q04DX002 (ip), vehicle: suspension in saline): 0 of 6
- survivor count (dose: 400.0 mg/kg/injection, schedule: Q04DX002 (ip), vehicle: suspension in saline): 0 of 6

Structure (SMILES): c1cc(OCCOc2cccc3ocnc23)c2ncoc2c1
- survivor count (dose: 120.0 mg/kg/injection, schedule: Q01DX005 (ip), vehicle: saline with Tween-80): 6 of 6

Structure (SMILES): O=c1c(F)cn(C(c2ccccc2)c2ccccc2)c(=O)n1C(c1ccccc1)c1ccccc1
- survivor count (dose: 100.0 mg/kg/injection, schedule: Q01DX009 (ip), vehicle: suspension in saline): 6 of 6

Structure (SMILES): CNC(=O)NC(c1ccc2c(c1)OCO2)c1cc2c(cc1O)OCO2 (configuration not stated)
- survivor count (dose: 240.0 mg/kg/injection, schedule: Q01DX005 (ip), vehicle: Klucel (hydroxypropylcellulose) (HPC)): 6 of 6

Structure (SMILES): Cc1cnc(F)nc1F
- survivor count [5]: 0 of 6

Structure (SMILES): C/C(CCCC(C)(C)C(=O)O)=N/Nc1ccc([N+](=O)[O-])cc1[N+](=O)[O-]
- survivor count [6]: 0 of 6
- survivor count [3]: 0 of 6

Structure (SMILES): NC(N)=NS(=O)(=O)c1ccc(N=Nc2c(O)n(-c3ccccc3)n(-c3ccccc3)c2=O)cc1
- survivor count [2]: 6 of 6

Structure (SMILES): CC(=O)Nc1c([N+](=O)[O-])cc2c3c(cccc13)CC2
- survivor count [11]: 3 of 6

Structure (SMILES): CSC(=S)NN=C1CCCC1
- survivor count (dose: 50.0 mg/kg/injection, schedule: Q01DX009 (ip), vehicle: saline with Tween-80): 3 of 6

Structure (SMILES): COc1ccc2c(c1)N(C(=O)CN1CCN(C)CC1)c1ccccc1S2
- survivor count (dose: 200.0 mg/kg/injection, schedule: Q04DX002 (ip), vehicle: saline with Tween-80): 3 of 6
- survivor count (dose: 400.0 mg/kg/injection, schedule: Q04DX002 (ip), vehicle: saline with Tween-80): 0 of 6

Structure (SMILES): O=C(O)CCC(=O)O
- survivor count [7]: 6 of 6

Structure (SMILES): CCOc1ccc(Nc2cc([N+](=O)[O-])ccc2C(=O)O)cc1
- survivor count [6]: 6 of 6

Structure (SMILES): O=[N+]([O-])c1ccc(NCc2ccccc2)nc1
- survivor count [11]: 2 of 6

Structure (SMILES): CCc1ccc(/C=C/C(=O)C(C)CN(C)C)cc1 (configuration not stated)
- survivor count (dose: 240.0 mg/kg/injection, schedule: Q01DX005 (ip), vehicle: saline): 6 of 6

Structure (SMILES): CNC(=O)OCc1c(COC(=O)NC)c(C)n(-c2ccc3c(c2)OCO3)c1C
- T/C (dose: 12.5 mg/kg/injection, schedule: Q01DX009 (ip), vehicle: Klucel (hydroxypropylcellulose) (HPC)): 132 and 146 % of control
- T/C [8]: 144 and 146 % of control
- survivor count [9]: 2 of 6

Structure (SMILES): C#CC(C)C(C(C)=O)C(C)=O.[C-]#[O+].[C-]#[O+].[C-]#[O+].[C-]#[O+].[C-]#[O+].[C-]#[O+].[Co].[Co] (configuration not stated)
- survivor count (dose: 50.0 mg/kg/injection, schedule: Q01DX005 (ip), vehicle: Klucel (hydroxypropylcellulose) (HPC)): 0 of 6
- survivor count (dose: 100.0 mg/kg/injection, schedule: Q01DX005 (ip), vehicle: Klucel (hydroxypropylcellulose) (HPC)): 0 of 6
- survivor count [12]: 0 of 6

Structure (SMILES): CCN(CCO)CCc1cccc2ccccc12
- survivor count [12]: 1 of 6

Structure (SMILES): O=P(c1ccccc1)(c1ccccc1)c1ccccc1.O=P(c1ccccc1)(c1ccccc1)c1ccccc1.O=P(c1ccccc1)(c1ccccc1)c1ccccc1.O=P(c1ccccc1)(c1ccccc1)c1ccccc1.[O-][Cl+3]([O-])([O-])O.[Zn+2]
- survivor count (dose: 200.0 mg/kg/injection, schedule: Q01DX001 (ip), vehicle: saline with Tween-80): 2 of 6 and 3 of 6
- survivor count (dose: 400.0 mg/kg/injection, schedule: Q01DX001 (ip), vehicle: saline with Tween-80): 0 of 6

Structure (SMILES): CCCCC[CH2][Ge]([CH2]CCCCC)([CH2]CCCCC)[O]C(C)=O
- T/C [10]: 133 % of control

Structure (SMILES): CN(C)c1ccc([N+](C)(C)Cc2ccc(C[N+](C)(C)c3ccc([N+](C)(C)Cc4ccc(CCl)cc4)cc3)cc2)cc1
- survivor count (dose: 12.5 mg/kg/injection, schedule: Q01DX001 (ip), vehicle: saline): 0 of 6 and 3 of 6
- survivor count (dose: 25.0 mg/kg/injection, schedule: Q01DX001 (ip), vehicle: saline): 0 of 6
- survivor count (dose: 50.0 mg/kg/injection, schedule: Q01DX001 (ip), vehicle: saline): 1 of 6
- survivor count (dose: 100.0 mg/kg/injection, schedule: Q01DX001 (ip), vehicle: saline): 0 of 6
- survivor count (dose: 200.0 mg/kg/injection, schedule: Q01DX001 (ip), vehicle: saline): 0 of 6
- survivor count (dose: 400.0 mg/kg/injection, schedule: Q01DX001 (ip), vehicle: saline): 0 of 6
